Several values for one entry are separate records, joined by “and”; a condition that tells them apart may be missing. Equal entries are not always repeated. The source gives many values for each of these; only a part stands here.
Key:
[1] = Urine concentrations, 72-hour continuous intravenous infusion; format: in vivo, Sprague-Dawley rats; conditions: individual animals
Procedure: (§1) The safety and pharmacokinetics of PPTN (KB-1801) in rats receiving continuous intravenous injections of SBECD-containing solutions were analyzed. Three cohorts of six male and six female rats each were given continuous intravenous infusion of PPTN (KB-1801) at 10 mg/kg/day, 30 mg/kg/day or 100 mg/kg/day in a dosing solution containing PPTN at 0.25 mg/mL, 0.75 mg/mL or 2.5 mg/mL and SBECD at about 3.8%. Dosing volume was 40 mIkg/day.

[2] = Urine concentrations, 24-hour continuous intravenous infusion; format: in vivo, Sprague-Dawley rats; conditions: for Urine Conc.: individual animals; for Urine Conc., individual animal: male Sprague-Dawley rats, 24-hour intravenous infusion at 10 mg/kg, 10 mg/kg
Procedure: as §1

[3] = 72-hour IV infusion 30 mg/kg/day, female rats, interval 20-24 h
[4] = 72-hour IV infusion 30 mg/kg/day, female rats, interval 44-48 h
[5] = 72-hour IV infusion 30 mg/kg/day, female rats, interval 68-72 h
[6] = 72-hour IV infusion 30 mg/kg/day, female rats, interval 92-96 h
[7] = 72-hour IV infusion 30 mg/kg/day, male rats, interval 0-4 h
[8] = 72-hour IV infusion 30 mg/kg/day, male rats, interval 4-9 h
[9] = 72-hour IV infusion 30 mg/kg/day, male rats, interval 20-24 h
[10] = 72-hour IV infusion 30 mg/kg/day, male rats, interval 44-48 h
[11] = 72-hour IV infusion 30 mg/kg/day, male rats, interval 68-72 h
[12] = 72-hour IV infusion 30 mg/kg/day, male rats, interval 92-96 h
[13] = 72-hour IV infusion 100 mg/kg/day, female rats, interval 0-4 h
[14] = 72-hour IV infusion 100 mg/kg/day, female rats, interval 4-9 h
[15] = 72-hour IV infusion 100 mg/kg/day, female rats, interval 20-24 h
[16] = 72-hour IV infusion 100 mg/kg/day, female rats, interval 44-48 h
[17] = 72-hour IV infusion 100 mg/kg/day, female rats, interval 68-72 h
[18] = 72-hour IV infusion 100 mg/kg/day, female rats, interval 92-96 h
[19] = 72-hour IV infusion 100 mg/kg/day, male rats, interval 0-4 h
[20] = 72-hour IV infusion 100 mg/kg/day, male rats, interval 4-9 h
[21] = 72-hour IV infusion 100 mg/kg/day, male rats, interval 20-24 h
[22] = 72-hour IV infusion 100 mg/kg/day, male rats, interval 44-48 h
[23] = 72-hour IV infusion 100 mg/kg/day, male rats, interval 68-72 h
[24] = 72-hour IV infusion 100 mg/kg/day, male rats, interval 92-96 h

## O=C(O)c1cc(-c2ccc(C3CCNCC3)cc2)c2ccc(-c3ccc(C(F)(F)F)cc3)cc2c1 [KB-1801, 4-[4-(piperidin-4-yl)phenyl]-7-[4-(trifluoromethyl)phenyl]-2-naphthoic acid]
[1]; [3]
  Amount in urine: 12.0 µg and 27.5 µg and 15.7 µg and 8.49 µg and 66.5 µg and 16.0 µg
  Urine Conc.: 24.1 µg/mL and 27.5 µg/mL and 39.3 µg/mL and 84.9 µg/mL and 66.5 µg/mL and 16.0 µg/mL
[1]; [4]
  Amount in urine: 25.2 µg and 31.4 µg and 52.6 µg and 13.7 µg and 12.4 µg and 58.3 µg
  Urine Conc.: 50.5 µg/mL and 31.4 µg/mL and 52.6 µg/mL and 45.6 µg/mL and 61.9 µg/mL and 38.9 µg/mL
[1]; [5]
  Amount in urine: 26.4 µg and 6.96 µg and 10.8 µg and 1.57 µg and 40.1 µg
  Urine Conc.: 26.4 µg/mL and 34.8 µg/mL and 54.2 µg/mL and 78.3 µg/mL and 20.0 µg/mL
[1]; [6]
  Amount in urine: 0.008 μg and 0.01 μg (2×) and 0.03 μg and 0.02 μg (2×)
  Urine Conc.: 0.02 μg/mL (2×) and 0.04 μg/mL and 0.10 μg/mL and 0.11 μg/mL and 0.09 μg/mL
[1]; [7]
  Amount in urine: 7.51 µg and 1.93 µg and 1.19 µg and 0.0 µg and 2.29 µg
  Urine Conc.: 7.51 µg/mL and 32.1 µg/mL and 23.9 µg/mL and 0.89 µg/mL and 5.72 µg/mL
[1]; [8]
  Amount in urine: 17.0 µg and 3.07 µg and 31.1 µg and 11.4 µg and 29.3 µg
  Urine Conc.: 34.0 µg/mL and 76.7 µg/mL and 20.7 µg/mL and 114.0 µg/mL and 73.3 µg/mL
[1]; [9]
  Amount in urine: 35.0 µg and 55.7 µg and 33.4 µg and 39.0 µg and 83.2 µg
  Urine Conc.: 70.0 µg/mL and 55.7 µg/mL and 111.5 µg/mL and 78.0 µg/mL and 41.6 µg/mL
[1]; [10]
  Amount in urine: 64.7 µg and 82.2 µg and 106.2 µg and 32.0 µg and 11.5 µg and 127.0 µg
  Urine Conc.: 64.7 µg/mL and 82.2 µg/mL and 53.1 µg/mL and 64.0 µg/mL and 114.6 µg/mL and 63.5 µg/mL
[1]; [11]
  Amount in urine: 63.2 µg and 77.8 µg and 55.7 µg and 42.7 µg and 25.4 µg and 90.1 µg
  Urine Conc.: 63.2 µg/mL and 77.8 µg/mL and 55.7 µg/mL and 85.4 µg/mL and 127.1 µg/mL and 60.0 µg/mL
[1]; [12]
  Amount in urine: 0.51 µg and 0.47 µg and 0.10 µg and 0.53 µg and 0.26 µg and 0.08 µg
  Urine Conc.: 0.26 μg/mL and 0.23 μg/mL and 0.52 μg/mL (2×) and 0.53 μg/mL and 0.39 μg/mL
[1]; [13]
  Amount in urine: 1.88 μg and 26.8 μg and 0.0 μg (2×)
  Urine Conc.: 31.3 µg/mL and 53.6 µg/mL and 0.01 µg/mL and 0.02 µg/mL
[1]; [14]
  Amount in urine: 29.6 µg and 51.6 µg and 68.6 µg and 54.7 µg and 5.5 µg
  Urine Conc.: 98.8 µg/mL and 257.8 µg/mL and 45.7 µg/mL and 109.3 µg/mL and 109.6 µg/mL
[1]; [15]
  Amount in urine: 45.4 µg and 52.8 µg and 0.1 µg and 91.5 µg and 34.9 µg and 50.0 µg
  Urine Conc.: 151.3 µg/mL and 105.5 µg/mL and 0.6 µg/mL and 91.5 µg/mL and 349.3 µg/mL and 124.9 µg/mL
[1]; [16]
  Amount in urine: 119.6 µg and 16.3 µg and 52.6 µg and 73.2 µg
  Urine Conc.: 79.7 µg/mL and 162.8 µg/mL and 175.4 µg/mL and 146.4 µg/mL
[1]; [17]
  Amount in urine: 55.0 µg and 44.2 µg and 78.6 µg and 38.3 µg and 9.20 µg and 225.2 µg
  Urine Conc.: 110.0 µg/mL and 220.9 µg/mL and 262.0 µg/mL and 127.6 µg/mL and 613.4 µg/mL and 225.2 µg/mL
[1]; [18]
  Amount in urine: 0.04 μg and 0.21 μg and 0.01 μg (2×) and 0.09 μg and 0.05 μg
  Urine Conc.: 0.19 μg/mL (2×) and 0.41 μg/mL and 0.18 μg/mL and 0.25 μg/mL and 0.10 μg/mL
[1]; [19]
  Amount in urine: 12.0 µg and 6.62 µg and 11.03 µg and 37.6 µg and 42.7 µg
  Urine Conc.: 119.9 µg/mL and 33.1 µg/mL and 110.3 µg/mL and 93.9 µg/mL and 142.4 µg/mL
[1]; [20]
  Amount in urine: 21.8 µg and 28.5 µg and 103.5 µg and 67.7 µg and 233.3 µg and 8.0 µg
  Urine Conc.: 218.2 µg/mL and 284.7 µg/mL and 207.1 µg/mL and 135.4 µg/mL and 93.3 µg/mL and 79.7 µg/mL
[1]; [21]
  Amount in urine: 205.3 µg and 120.0 µg and 102.7 µg and 50.9 µg and 53.1 µg and 58.3 µg
  Urine Conc.: 205.3 µg/mL and 239.9 µg/mL and 102.7 µg/mL and 254.4 µg/mL and 265.7 µg/mL and 291.4 µg/mL
[1]; [22]
  Amount in urine: 79.5 µg and 401.7 µg and 73.4 µg and 38.8 µg and 218.6 µg
  Urine Conc.: 397.5 µg/mL and 200.8 µg/mL and 367.0 µg/mL and 388.2 µg/mL and 145.7 µg/mL
[1]; [23]
  Amount in urine: 17.8 µg and 165.9 µg and 261.0 µg and 174.4 µg and 110.2 µg
  Urine Conc.: 177.9 µg/mL and 331.8 µg/mL and 261.0 µg/mL and 348.8 µg/mL and 220.3 µg/mL
[1]; [24]
  Amount in urine: 1.13 µg and 0.73 µg and 0.34 µg and 0.53 µg and 0.02 µg
  Urine Conc.: 1.13 µg/mL and 1.45 µg/mL and 1.68 µg/mL and 1.06 µg/mL and 2.09 µg/mL
[2]; 24-hour IV infusion 10 mg/kg, female rats, interval 0-4 h
  Urine Conc.: 0.33 µg/mL and 0.47 µg/mL and 0.81 µg/mL and 2.49 µg/mL and 4.21 µg/mL
[2]; 24-hour IV infusion 10 mg/kg, female rats, interval 4-9 h
  Urine Conc.: 3.83 µg/mL and 13.2 µg/mL and 7.48 µg/mL and 0.54 µg/mL and 0.23 µg/mL
[2]; 24-hour IV infusion 10 mg/kg, female rats, interval 9-24 h
  Urine Conc.: 25.7 µg/mL and 38.3 µg/mL and 18.2 µg/mL and 26.8 µg/mL and 15.3 µg/mL
[2]; 24-hour IV infusion 30 mg/kg, female rats, interval 0-4 h
  Urine Conc.: 3.51 µg/mL and 6.66 µg/mL and 0.02 µg/mL and 17.69 µg/mL and 1.42 µg/mL
[2]; 24-hour IV infusion 30 mg/kg, female rats, interval 4-9 h
  Urine Conc.: 9.17 µg/mL and 32.4 µg/mL and 15.1 µg/mL and 19.7 µg/mL
[2]; 24-hour IV infusion 30 mg/kg, female rats, interval 9-24 h
  Urine Conc.: 55.3 µg/mL and 46.5 µg/mL and 68.3 µg/mL and 84.8 µg/mL and 75.6 µg/mL
[2]; 24-hour IV infusion 30 mg/kg, male rats, interval 0-4 h
  Urine Conc.: 0.05 μg/mL and 2.03 μg/mL and 0.02 μg/mL (2×) and 0.003 μg/mL and 33.9 μg/mL
[2]; 24-hour IV infusion 30 mg/kg, male rats, interval 4-9 h
  Urine Conc.: 26.0 µg/mL and 29.2 µg/mL and 28.2 µg/mL and 0.01 µg/mL and 7.87 µg/mL and 21.8 µg/mL
[2]; 24-hour IV infusion 30 mg/kg, male rats, interval 9-24 h
  Urine Conc.: 48.2 µg/mL and 71.5 µg/mL and 87.1 µg/mL and 113.8 µg/mL and 90.6 µg/mL and 79.0 µg/mL
[2]; 24-hour IV infusion 100 mg/kg, female rats, interval 0-4 h
  Urine Conc.: 0.01 μg/mL (2×) and 9.75 μg/mL and 3.61 μg/mL and 17.1 μg/mL and 2.38 μg/mL
[2]; 24-hour IV infusion 100 mg/kg, female rats, interval 4-9 h
  Urine Conc.: 3.67 µg/mL and 48.3 µg/mL and 19.9 µg/mL and 0.01 µg/mL and 18.3 µg/mL
[2]; 24-hour IV infusion 100 mg/kg, female rats, interval 9-24 h
  Urine Conc.: 26.7 µg/mL and 146.4 µg/mL and 48.8 µg/mL and 356.5 µg/mL and 167.0 µg/mL and 248.5 µg/mL
[2]; 24-hour IV infusion 100 mg/kg, male rats, interval 0-4 h
  Urine Conc.: 0.24 µg/mL and 40.8 µg/mL and 128.2 µg/mL
[2]; 24-hour IV infusion 100 mg/kg, male rats, interval 4-9 h
  Urine Conc.: 22.4 µg/mL and 52.0 µg/mL and 0.004 µg/mL and 60.3 µg/mL and 32.1 µg/mL and 143.1 µg/mL
[2]; 24-hour IV infusion 100 mg/kg, male rats, interval 9-24 h
  Urine Conc.: 403.7 µg/mL and 412.0 µg/mL and 561.5 µg/mL and 541.9 µg/mL and 155.6 µg/mL
[2]; time interval 0-4 h
  Urine Conc., individual animal: 5.36 µg/mL and 1.41 µg/mL and 10.1 µg/mL and 7.41 µg/mL and 0.06 µg/mL
[2]; time interval 4-9 h
  Urine Conc., individual animal: 11.2 µg/mL and 1.16 µg/mL and 30.7 µg/mL and 1.30 µg/mL
[2]; time interval 9-24 h
  Urine Conc., individual animal: 32.3 µg/mL and 17.8 µg/mL and 31.6 µg/mL and 33.2 µg/mL and 28.1 µg/mL and 37.0 µg/mL

Source: patent US20220202799A1, “PHARMACEUTICAL FORMULATIONS CONTAINING P2Y14 ANTAGONISTS” (priority 2019, published 2022)
